Values from PubChem BioAssay AID504791 (Drosophila RNAi Screening Center, 2011)
In all, the deposit lists about 23,000 reagents; below is a random part of those that have a named target and a result. Of all reagents, 199 (0.86%) are marked active. 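Plate-scaled ratios behind the calls are not deposited; printed light signals are raw; many rows marked increased or decreased are still called inactive.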 Names joined by + are all predicted targets of the reagent. The record does not give: the direction of the score.

Aim: 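Factors in Argonaute-based small RNA production and activity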 (primary screen)
Cell system: Drosophila S2-derived reporter cells
Knock-down reagent: long dsRNA against Drosophila genes, about 150-250 ng dsRNA per well (siRNA assay); about 80-120 ng (miRNA assay)
Timing: about 5 days (siRNA assay); about 4 days (miRNA assay)
Treatment: copper sulfate induction of reporters: 25 µM (siRNA assay); 200 mM stated (miRNA assay), 1-2 days before reading
Measured: 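Per-well ratio of Renilla over firefly light, expressed relative to that plate's average ratio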
Active means: 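a well was a first-pass pick when its plate-scaled ratio rose above 1.5 (siRNA assay) or 1.6 (miRNA assay), or dropped below 0.6; a gene counted only if two separate dsRNAs agreed on retest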

| target | DRSC id | stable siRNA reporter change | miRNA reporter change | stable assay Renilla, run 1 (luminescence) | stable assay firefly, run 1 (luminescence) | outcome |
| --- | --- | --- | --- | --- | --- | --- |
| Cpr5C (GeneID 31510) | DRSC18340 | – | – | 4403 | 4.47e5 | inactive |
| Hsp27 (GeneID 39078) | DRSC11190 | – | – | 6791 | 3.37e5 | inactive |
| drongo (GeneID 33263) | DRSC00814 | – | – | 21010 | 1.95e5 | inactive |
| CG12540 (GeneID 32393) | DRSC19471 | – | – | 4447 | 4.29e5 | inactive |
| CG14797 (GeneID 31123) | DRSC17955 | – | – | 7398 | 3.92e5 | inactive |
| CG5382 (GeneID 42618) | DRSC15786 | – | – | 10292 | 4.31e5 | inactive |
| CG14610 + asRNA:CR42738 | DRSC12554 | – | – | 6086 | 3.42e5 | inactive |
| Atg18a (GeneID 38913) | DRSC10943 | – | – | 7771 | 3.77e5 | inactive |
| Lac (GeneID 36363) | DRSC07452 | – | – | 8484 | 4.34e5 | inactive |
| bbg (GeneID 39583) | DRSC11077 | – | – | 7514 | 4.64e5 | inactive |
| bbg (GeneID 39583) | DRSC11079 | – | – | 8533 | 3.53e5 | inactive |
| CG14397 (GeneID 8674022) | DRSC02381 | – | – | 6955 | 4.13e5 | inactive |
| CG3119 (GeneID 33479) | DRSC00569 | – | – | 7955 | 4.80e5 | inactive |
| Cap-H2 (GeneID 41289) | DRSC14908 | – | – | 6651 | 3.87e5 | inactive |
| CG3803 (GeneID 37809) | DRSC04420 | – | – | 6284 | 3.24e5 | inactive |
| pnut (GeneID 35801) | DRSC07666 | – | – | 6850 | 2.58e5 | inactive |
| mus302 (GeneID 39874) | DRSC09905 | – | – | 6958 | 3.16e5 | inactive |
| Obp56g (GeneID 37270) | DRSC06432 | – | – | 5580 | 3.84e5 | inactive |
| Spred (GeneID 36643) | DRSC05976 | – | – | 9048 | 3.90e5 | inactive |
| ATPsynepsilonL (GeneID 326144) | DRSC14548 | – | – | 5260 | 4.02e5 | inactive |
| Cip4 (GeneID 38534) | DRSC08091 | – | – | 6264 | 4.86e5 | inactive |
| Cip4 (GeneID 38534) | DRSC08469 | – | – | 7107 | 3.32e5 | inactive |
| Cip4 (GeneID 38534) | DRSC21740 | – | – | 8867 | 5.24e5 | inactive |
| WRNexo (GeneID 42208) | DRSC16278 | – | – | 8618 | 3.05e5 | inactive |
| Sdr (GeneID 41809) | DRSC15517 | – | – | 7804 | 3.52e5 | inactive |
| CG15498 (GeneID 42548) | DRSC15040 | – | – | 8236 | 3.62e5 | inactive |
| CG14314 (GeneID 42179) | DRSC14793 | – | – | 6570 | 2.82e5 | inactive |
| myd (GeneID 42303) | DRSC14762 | – | – | 8673 | 2.88e5 | inactive |
| myd (GeneID 42303) | DRSC15512 | – | – | 7359 | 3.74e5 | inactive |
| beat-Vb (GeneID 41583) | DRSC12940 | – | – | 5579 | 5.68e5 | inactive |
| beat-Vb (GeneID 41583) | DRSC14844 | – | – | 4203 | 4.96e5 | inactive |
| beat-Vb (GeneID 41583) | DRSC14845 | – | – | 7174 | 4.55e5 | inactive |
| PNKP (GeneID 40994) | DRSC16512 | – | – | 7203 | 4.87e5 | inactive |
| Smyd4-1 (GeneID 35985) | DRSC06785 | reporter ratio raised past the hit cutoff | – | 11217 | 3.73e5 | inactive |
| Smyd4-1 (GeneID 35985) | DRSC27142 | – | reporter ratio raised past the hit cutoff | – | – | inactive |

An excerpt from above, limited to “stable assay Renilla, run 1 (luminescence)”.
CG14797 (GeneID 31123) [DRSC17955] = 7398
CG5382 (GeneID 42618) [DRSC15786] = 10292
CG14610 + asRNA:CR42738 [DRSC12554] = 6086
Atg18a (GeneID 38913) [DRSC10943] = 7771
